Results published in PubChem BioAssay AID1347423 (Functional Genomics Laboratory (NCATS/FGL), 2020).
Hit rate of the full screen: of about 52,000 sequences, about 210 (0.4%) were called active.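 How the source made its calls: active means gene whose silencing raises cell survival under the drug, median off-target-corrected z-score across its silencing RNAs 2 or more; inactive means the rest.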 The list shows a part of the results.

test: Resistance to Poly (ADP-Ribose) Polymerase inhibitor: Gene Identification via Genome-wide siRNA Screen; details: mouse BRCA2 R2336H ES cells, olaparib, CellTiter-Glo viability; stronger effect = higher value
Outline: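 Genome-wide siRNA screen (3 siRNAs/gene, 20 nM) in mouse ES cells carrying hypomorphic BRCA2 R2336H; olaparib 500 nM added 48 h post-transfection, CellTiter-Glo viability 72 h later. Normalized to plate-median negative control; MAD z-scores, gene median, seed-adjusted.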

Sequence | z-score
GGAUAAGUGGUCUGCACUATT against Ube2c | inactive: -0.777
GGUCAUUAUUGGAUGCAUCTT against Mga | inactive: -2.47
GGCUUCUGGACCUCAAACATT against Zfp92 | inactive: 1.33
GGCUCAGAGAACUUCUACATT against Itgb4bp | inactive: -1.97
GGAAGUUCCGUCGAUUUGATT against Cyp8b1 | inactive: -1.83
GCACAAUGUCCCAUCGUGGTT against Rps5 | inactive: -2.33
GGCCAAGUUCCAUAUCACCTT against Eefsec | inactive: 1.24
GGAUGUCUCGGCAUAGUUCTT against Edg2 | inactive: -0.0558
CCUUCUCUCAUAACUCAUCTT against Rbak | inactive: -0.0622
CCAAUGCUUGUGAUAAGCCTT against 2310015J09Rik | inactive: 0.413
GGUUAAAAUGCCAUAACAATT against Ksr | inactive: -0.718
GGAUUGAGAAUAUCUGAGUTT against H2-T3 | inactive: -0.572
GGAGUUCGAGAAAGACAAATT against Eif4g3 | inactive: -1.35
GCUUCUGCUAGAUGAAAAUTT against Rgs7 | inactive: -0.846
GGUUUUUCUCUCUCUCAUUTT against Epas1 | inactive: 0.967
CGGAAUGGUUCUUUCACAGTT against Adamts13 | inactive: -0.643
GCAAAAGUUCCAAAAAUCCTT against Cryba1 | inactive: -0.508
CCCAGAGCAUUCCUAUUACTT against 2310020F24Rik | inactive: -1.42
GGAAUUCCUCUUCAACAUGTT against Hoxd9 | inactive: 0.144
GGAUGUUUUAAUCUAAAGCTT against Ccdc3 | inactive: 0.652
GGCUUUAAUGUGUCAGUACTT against Slc25a5 | inactive: 0.39
GGCCAAUGACAGAACCUAUTT against Atp8b3 | inactive: 0.482
CGUAUCUUAUAUCAGGAAATT against Trem1 | inactive: 0.666
GCGGAGCAGAAUCUUCAUGTT against Olfr614 | inactive: -0.039
GGUUGUUGUUUCGUAACAUTT against Cugbp2 | inactive: 0.196
GGUGAGGAGGAAAUCCUGCTT against Rdh10 | inactive: 0.0216
GGCGAGAAGGAAAUGUACATT against Arpc3 | inactive: -1.68
GCAACUGGCUGAACUCUCATT against AI987692 | inactive: 1.32
CCUCCAGUGGUAACAUUAGTT against Olfr301 | inactive: -1.79

2 entries from above, tab-delimited.
Sequence	z-score
CCAAUGCUUGUGAUAAGCCTT against 2310015J09Rik	inactive: 0.413
GGCCAAUGACAGAACCUAUTT against Atp8b3	inactive: 0.482
